Measurements: PMC7600800
These are yes or no findings as the source states them, for the method shown. In cells and extracts the contact can be indirect. These calls come from enrichment with a bait or labelling near it, and not all partners need be listed.

By UniProt entry, the sequences of proteins in these tests, tags left out.
UniProt P46527: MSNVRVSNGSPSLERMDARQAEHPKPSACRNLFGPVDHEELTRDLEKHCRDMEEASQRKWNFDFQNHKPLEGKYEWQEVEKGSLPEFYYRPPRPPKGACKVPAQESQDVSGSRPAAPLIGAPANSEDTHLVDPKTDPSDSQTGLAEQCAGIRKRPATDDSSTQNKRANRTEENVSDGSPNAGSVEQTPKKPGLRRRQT
UniProt P06748: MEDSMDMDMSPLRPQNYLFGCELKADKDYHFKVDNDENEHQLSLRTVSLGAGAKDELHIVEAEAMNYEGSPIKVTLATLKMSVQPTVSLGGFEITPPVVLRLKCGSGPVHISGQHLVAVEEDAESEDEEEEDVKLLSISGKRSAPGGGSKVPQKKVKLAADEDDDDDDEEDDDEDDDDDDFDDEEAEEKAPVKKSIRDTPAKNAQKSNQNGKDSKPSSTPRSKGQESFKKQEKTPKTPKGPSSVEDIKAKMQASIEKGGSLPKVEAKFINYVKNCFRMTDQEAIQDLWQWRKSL

Molecular target: HA-tagged p27 wild type (human) (UniProt P46527)
Experiment: affinity purification with mass spectrometry; lysates of transfected HEK293 cells mixed with anti-HA agarose beads at 4 °C overnight, rinsed with TBS 0.1% Tween 20, eluted with 0.2 M glycine pH 2.0, SDS-PAGE bands to LC-MS; untagged p27 as negative control

nucleophosmin isoform 1 (NPM1), endogenous human (from UniProt P06748 1-294)
binding: binds
